{"source": "PubChem BioAssay AID504834", "about": "(National Center for Advancing Translational Sciences (NCATS), 2011)", "note": "Out of some 320,000 compounds screened, about 22,000 (6.9%) were called active. Inconclusive results, whose numbers are uncertain, are shown with a selection of clear calls. Calls come from the whole dose curve; as a rule, active = well fitted inhibition curve with a large enough effect; inconclusive = small, poorly fitted or top-dose-only effect, or another doubt; inactive = no such curve, though single readings can be large or run the other way. Potencies beside an inconclusive call are fits to weak or partial responses and may not hold up. Potency is the fitted concentration of half-maximal effect."}
{"test": "Primary qHTS for delayed death inhibitors of the malarial parasite plastid, 96 hour incubation", "conditions": "P. falciparum luciferase reporter growth; series mostly up to 28.7 µM", "summary_of_the_method": "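P. falciparum expressing integrated firefly luciferase grown in erythrocytes (2% hematocrit, 0.05% parasitemia final) with compounds for 96 hours at 37 C, 5% CO2. Growth inhibition read as loss of luminescence after adding luciferase detection reagent.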"}
{"smiles": "COc1ccc(NC(=O)CSc2n[nH]c(-c3ccco3)n2)cc1", "Potency": "inconclusive: 9.28 µM [inhibitor, single point]"}
{"smiles": "CC1=NN(C(=O)c2c(Br)cnn2C)C(O)(C(F)(F)F)C1", "note": "(stereo not drawn)", "Potency": "inconclusive: 0.233 µM [inhibitor, full curve, poor fit]"}
{"smiles": "CCOc1ccc(N2C(=O)CC(C(C)c3ccccc3)C2=O)cc1", "note": "(stereo not drawn)", "Potency": "inconclusive: 11.7 µM [inhibitor, single point]"}
{"smiles": "Cc1ccc2[nH]c(=O)c(CN(C(=O)c3cccc([N+](=O)[O-])c3)C(C)(C)C)cc2c1", "Potency": "inconclusive: 5.22 µM [inhibitor, partial curve]"}
{"smiles": "CC(=Nc1ccc2c(c1)nc(CO)n2C)C1=C(O)CC(C)(C)CC1=O", "Potency": "inconclusive: 5.22 µM [inhibitor, single point]"}
{"smiles": "Cc1ccc(Sc2c(C)nn(C(=O)CNS(=O)(=O)c3ccc(F)cc3)c2C)cc1", "Potency": "inconclusive: 11.7 µM [inhibitor, single point]"}
{"smiles": "Cc1nc2nc(C)c(CCC(=O)NC3CCCCC3)c(C)n2n1", "Potency": "inconclusive: 3.29 µM [inhibitor, partial curve]"}
{"smiles": "CC(C)c1ccc(C(C)NC(=O)C2CCCC2)cc1", "note": "(stereo not drawn)", "Potency": "inactive"}
{"smiles": "COc1ccc(C2SCCN2C(=S)Nc2ccc(Cl)cc2)cc1", "note": "(stereo not drawn)", "Potency": "inconclusive: 20.8 µM [inhibitor, single point]"}
{"smiles": "O=C(NNC(=O)c1ccc(Br)s1)c1ccc(F)c(S(=O)(=O)N2CCOCC2)c1", "Potency": "active: 10.4 µM"}
{"smiles": "COC(=O)c1cc(NC(=O)c2cccc(C(F)(F)F)c2)c(=O)oc1C/C=N/OCc1cccc(Cl)c1Cl", "Potency": "inconclusive: 5.86 µM [inhibitor, partial curve, poor fit]"}
{"smiles": "CCCOc1ccc(NC(=O)CC2C(=O)Nc3ccccc3N2CC(=O)N2CCCC2)cc1", "note": "(stereo not drawn)", "Potency": "inconclusive: 10.4 µM [inhibitor, single point]"}
{"smiles": "CC1CC(C)CN(C(=O)CCc2nnc3ccc(N4CCCCC4)nn23)C1", "note": "(stereo not drawn)", "Potency": "inconclusive: 18.5 µM [inhibitor, single point]"}
{"smiles": "Cc1ccc(S(=O)(=O)c2ccc(Cl)cc2)cc1S(=O)(=O)NC(C)C(=O)O", "note": "(stereo not drawn)", "Potency": "inactive"}
{"smiles": "Cc1cc(C)nc(SCc2nc3ccccc3n2C)n1", "Potency": "inconclusive: 18.5 µM [inhibitor, partial curve, poor fit]"}
{"smiles": "O=C(c1cc(N2CCOCC2)c(F)cc1[N+](=O)[O-])N1CCOCC1", "Potency": "inconclusive: 16.5 µM [inhibitor, single point]"}
{"smiles": "OC(CNCc1cccc(Cl)c1)c1ccccc1", "note": "(stereo not drawn)", "Potency": "inactive"}
{"smiles": "CCOc1ccc(NC(=O)C2CCCN2S(=O)(=O)c2ccc3c(c2)C(C)(C)C(=O)N3C)cc1", "note": "(stereo not drawn)", "Potency": "inconclusive: 4.15 µM [inhibitor, full curve, poor fit]"}
{"smiles": "O=C(Cn1c(=O)oc2ccccc21)Nc1cccc(Cl)c1", "Potency": "inconclusive: 2.62 µM [inhibitor, partial curve, poor fit]"}
{"smiles": "CCC(C)c1ccccc1N1CC(C(=O)NCCc2ccc(OC)c(OC)c2)CC1=O", "note": "(stereo not drawn)", "Potency": "inconclusive: 2.33 µM [inhibitor, full curve]"}
{"smiles": "CCCCN=c1sc(C(=O)OC)cc(=O)n1CCCC", "Potency": "inconclusive: 1.17 µM [inhibitor, partial curve, poor fit]"}
{"smiles": "CCCc1nc2ccccc2c(C(=O)OCC(=O)Nc2cccc(S(=O)(=O)N3CCOCC3)c2)c1CC", "Potency": "active: 7.38 µM"}
{"smiles": "Cc1ccc(C(=O)N2CCN3C(=O)c4ccccc4C23c2ccc(Cl)cc2)cc1", "note": "(stereo not drawn)", "Potency": "active: 6.57 µM"}
{"smiles": "O=c1c2ccccc2nc(-c2ccccc2)n1CCCn1ccnc1", "Potency": "inconclusive: 1.47 µM [inhibitor, partial curve, poor fit]"}
{"smiles": "COc1ccccc1N(C)S(=O)(=O)c1ccc(C(=O)N(C)Cc2ccc(Cl)s2)cc1", "Potency": "inconclusive: 18.5 µM [inhibitor, single point]"}
{"smiles": "CCC(=O)n1nc(-c2ccc(OC)cc2)nc1NCc1cccs1", "Potency": "inactive"}
{"smiles": "CN(C)c1ccc(NC(=O)CN2CCN(S(=O)(=O)c3cc(Cl)ccc3Cl)CC2)cc1", "Potency": "inconclusive: 9.28 µM [inhibitor, partial curve, poor fit]"}
{"smiles": "C/C=C(\\C)C(=O)Nc1cccc(C2=NOC3(C2)C[C@@H](C(N)=O)N(C(=O)c2ccccc2C(=O)c2ccccc2)C3)c1", "note": "(stereo partly drawn)", "Potency": "inconclusive: 16.5 µM [inhibitor, partial curve, poor fit]"}
{"smiles": "CCCC(=O)Nc1nnc(SCC(=O)NC2CC2)s1", "Potency": "inactive"}
{"smiles": "CN(Cc1ccsc1)C(=O)CCc1nnc(Cc2c[nH]c3ccccc23)o1", "Potency": "inconclusive: 18.5 µM [inhibitor, single point]"}
{"smiles": "COc1ccc(C(=O)NCc2nc(C)c(C)s2)cc1OC1CCN(C(C)C)CC1", "Potency": "inconclusive: 18.5 µM [inhibitor, single point]"}
{"smiles": "COc1ccc(N2CC(C(=O)N(CC(C)C)c3c(N)n(Cc4ccccc4)c(=O)[nH]c3=O)CC2=O)c(OC)c1", "note": "(stereo not drawn)", "Potency": "inactive"}
{"smiles": "COc1ccc(COc2ccc(S(=O)(=O)N3CCCC3)cc2C(N)=O)cc1F", "Potency": "inconclusive: 2.94 µM [inhibitor, full curve, poor fit]"}
{"smiles": "CC(C)CCNC(=O)c1cc(C(=O)c2cc(Br)ccc2O)cn(CCC(C)C)c1=O", "Potency": "active: 0.415 µM"}
{"smiles": "COCCN(C(=O)COC(=O)c1ccc2[nH]c(C)c(C)c2c1)c1c(N)n(Cc2ccccc2)c(=O)[nH]c1=O", "Potency": "inconclusive: 11.7 µM [inhibitor, single point]"}
{"smiles": "Cc1cc(C)n(CCc2nc(-c3ccc(F)cc3)cs2)n1", "Potency": "inconclusive: 0.928 µM [inhibitor, partial curve, poor fit]"}
{"smiles": "CC1CCN(C(=O)CNC(=O)Cn2ccc3ccccc3c2=O)CC1", "Potency": "inconclusive: 2.94 µM [inhibitor, full curve]"}
{"smiles": "C=CCn1c(SCC(=O)Nc2nnc(CC)s2)nnc1-c1ccco1", "Potency": "inconclusive: 3.7 µM [inhibitor, partial curve]"}
{"smiles": "CC(=O)OC1(c2ccccc2)CCN(C2CCCCC2)CC1C", "note": "(stereo not drawn)", "Potency": "inconclusive: 1.65 µM [inhibitor, partial curve, poor fit]"}
{"smiles": "CCC/C=N/NC(=O)CNC(=O)c1ccccc1Cl", "Potency": "inactive"}
{"smiles": "CCN1CCC2(CCN(Cc3cn[nH]c3-c3ccc(OC)c(F)c3)C2)C1", "note": "(stereo not drawn)", "Potency": "active: 10.4 µM"}
{"smiles": "CC1(C)CC2CC(C)(CN2S(=O)(=O)c2ccc(C(=O)Nc3ccc(S(=O)(=O)N4CCOCC4)cc3)cc2)C1", "note": "(stereo not drawn)", "Potency": "inconclusive: 4.15 µM [inhibitor, single point]"}
{"smiles": "Cc1nc(Cl)c(C#N)c2c1CCCC2", "Potency": "inconclusive: 0.0029 µM [inhibitor, full curve, poor fit]"}
{"smiles": "Cc1ccc2c(c1)sc(-c1ccc(N(C)C)cc1)[n+]2C", "Potency": "inconclusive: 0.928 µM [inhibitor, partial curve]"}
{"smiles": "O=C(NCCc1ccc2c(c1)OCCO2)c1ccc([N+](=O)[O-])cc1Cl", "Potency": "inconclusive: 20.8 µM [inhibitor, single point]"}
{"smiles": "Cc1c(/C=N/n2cnnc2)c2ccccc2n1CCOc1ccccc1", "Potency": "inconclusive: 18.5 µM [inhibitor, single point]"}
{"smiles": "CCN1C(=O)C(CC(=O)Nc2ccc(OC)cc2)N(Cc2cccs2)C1=S", "note": "(stereo not drawn)", "Potency": "inconclusive: 18.5 µM [inhibitor, single point]"}
{"smiles": "O=C(Nc1ccc(Cl)cc1C(F)(F)F)C(Sc1nnc(-c2cccs2)o1)c1ccccc1", "note": "(stereo not drawn)", "Potency": "inconclusive: 18.5 µM [inhibitor, single point]"}
{"smiles": "O=C(NCC1COc2ccccc2O1)C1CCN(S(=O)(=O)c2cccc3nsnc23)CC1", "note": "(stereo not drawn)", "Potency": "inconclusive: 10.4 µM [inhibitor, single point]"}
{"smiles": "COc1ccc(Oc2nc(-c3ccccc3)ncc2S(=O)(=O)c2ccccc2)cc1", "Potency": "inconclusive: 18.5 µM [inhibitor, single point]"}
{"smiles": "CC(C)(C)c1ccc(S(=O)(=O)NCC(=O)N2CCCC2)cc1", "Potency": "inconclusive: 2.94 µM [inhibitor, partial curve, poor fit]"}
{"smiles": "Cc1ccc(C(=O)N(CCCN(C)C)c2nc3ccc(Cl)cc3s2)cc1C", "Potency": "inconclusive: 13.1 µM [inhibitor, single point]"}
{"smiles": "O=C(c1ccc(CS(=O)c2ccccc2Cl)o1)N1CCN(c2ccccn2)CC1", "note": "(stereo not drawn)", "Potency": "inconclusive: 18.5 µM [inhibitor, single point]"}
{"smiles": "O=C(NC1CCCCC1)C(c1ccc2ncccc2c1)N(Cc1ccc2c(c1)OCO2)C(=O)c1cccs1", "note": "(stereo not drawn)", "Potency": "active: 5.86 µM"}
{"smiles": "COc1ccc(N(CC(=O)Nc2cc(OC)ccc2OC)S(=O)(=O)c2c(C)noc2C)cc1", "Potency": "inconclusive: 16.5 µM [inhibitor, single point]"}
{"smiles": "Cc1ccc2c(CN3CCN(Cc4ccccc4)CC3)cc(=O)oc2c1", "Potency": "inconclusive: 13.1 µM [inhibitor, single point]"}
{"smiles": "CC(C#N)Sc1nnc(-c2ccccc2F)n1C1CC1", "note": "(stereo not drawn)", "Potency": "inactive"}
{"smiles": "CC(C)C(NC(=O)c1ccccc1NC(=O)c1ccccc1)C(=O)NNC(=O)c1ccncc1", "note": "(stereo not drawn)", "Potency": "inconclusive: 0.586 µM [inhibitor, full curve]"}
{"smiles": "Cc1ccc(Nc2nc3ccccc3n3cnnc23)c(Cl)c1", "Potency": "inactive"}
{"smiles": "COc1cc(OC)c(-c2nc3ccccc3s2)cc1OC", "Potency": "inconclusive: 11.7 µM [inhibitor, partial curve, poor fit]"}
{"smiles": "Fc1ccc(-c2cc(-c3nnc4n3CCCCC4)c3ccccc3n2)cc1", "Potency": "inconclusive: 13.1 µM [inhibitor, partial curve, poor fit]"}
{"smiles": "Cc1ccc(SCCC(=O)Nc2cc(C)on2)cc1", "Potency": "inconclusive: 0.0657 µM [inhibitor, full curve, poor fit]"}
{"smiles": "CCn1ncc([N+](=O)[O-])c1C(=O)Nc1ccc(C(=O)N2CCCCC2)cc1", "Potency": "inactive"}
